The effect of the compound repeats well; differences between the knockouts mostly do not.
Tested on: SKBR3
Assay: relative cell number vs DMSO control (72 h) (% of DMSO); higher = less growth inhibition (more cells)
Procedure: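 QMAP-Seq: a pool of 5 breast cancer cell lines (ZR-75-1, SKBR3, HCC-38, MDA-MB-231, BT-20), each carrying 12 doxycycline-inducible Cas9 sgRNA perturbations (11 knockouts plus non-targeting sgNT), was treated with compounds for 72 h at four 10-fold doses (10 nM-10 uM or 1 nM-1 uM range). Barcodes were amplified and sequenced, and cell number was interpolated from 293T spike-in standard curves. The result is expressed as % of the median of DMSO wells. Two biological replicates.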

Cc1nc(Nc2ncc(C(=O)Nc3c(C)cccc3Cl)s2)cc(N2CCN(CCO)CC2)n1 [Dasatinib]
Settings	relative cell number
sgRNA knockout: sgATF3, 10 nM	113
sgRNA knockout: sgATF3, 100 nM	112
sgRNA knockout: sgATF3, 1000 nM	114
sgRNA knockout: sgATF3, 10000 nM	48.5
sgRNA knockout: sgATF4, 10 nM	107.1
sgRNA knockout: sgATF4, 100 nM	85.5
sgRNA knockout: sgATF4, 1000 nM	89.9
sgRNA knockout: sgATF4, 10000 nM	37.5
sgRNA knockout: sgATF6, 10 nM	93.9
sgRNA knockout: sgATF6, 100 nM	83.4
sgRNA knockout: sgATF6, 1000 nM	90.1
sgRNA knockout: sgATF6, 10000 nM	37.6
sgRNA knockout: sgATG7, 10 nM	102.5
sgRNA knockout: sgATG7, 100 nM	95.3
sgRNA knockout: sgATG7, 1000 nM	126.2
sgRNA knockout: sgATG7, 10000 nM	39.8
sgRNA knockout: sgERN1, 10 nM	68.9
sgRNA knockout: sgERN1, 100 nM	96.9
sgRNA knockout: sgERN1, 1000 nM	107
sgRNA knockout: sgERN1, 10000 nM	52.7
sgRNA knockout: sgHSF1, 10 nM	87.1
sgRNA knockout: sgHSF1, 100 nM	99.7
sgRNA knockout: sgHSF1, 1000 nM	93.7
sgRNA knockout: sgHSF1, 10000 nM	41.4
sgRNA knockout: sgHSF2, 10 nM	90.01
sgRNA knockout: sgHSF2, 100 nM	91.6
sgRNA knockout: sgHSF2, 1000 nM	92.8
sgRNA knockout: sgHSF2, 10000 nM	40.8
sgRNA knockout: sgKEAP1, 10 nM	114
sgRNA knockout: sgKEAP1, 100 nM	83.9
sgRNA knockout: sgKEAP1, 1000 nM	100
sgRNA knockout: sgKEAP1, 10000 nM	43.8
sgRNA knockout: sgNFE2L2, 10 nM	99
sgRNA knockout: sgNFE2L2, 100 nM	88.9
sgRNA knockout: sgNFE2L2, 1000 nM	87.9
sgRNA knockout: sgNFE2L2, 10000 nM	48.4
sgRNA knockout: sgSLC35F2, 10 nM	108
sgRNA knockout: sgSLC35F2, 100 nM	77.8
sgRNA knockout: sgSLC35F2, 1000 nM	91.6
sgRNA knockout: sgSLC35F2, 10000 nM	37.9
sgRNA knockout: sgXBP1, 10 nM	83.1
sgRNA knockout: sgXBP1, 100 nM	71.8
sgRNA knockout: sgXBP1, 1000 nM	102
sgRNA knockout: sgXBP1, 10000 nM	45.5

C#Cc1cccc(Nc2ncnc3cc(OCCOC)c(OCCOC)cc23)c1 [Erlotinib]
Settings	relative cell number
sgRNA knockout: sgATF3, 10 nM	147
sgRNA knockout: sgATF3, 100 nM	98.2
sgRNA knockout: sgATF3, 1000 nM	90.3
sgRNA knockout: sgATF3, 10000 nM	44.4
sgRNA knockout: sgATF4, 10 nM	122
sgRNA knockout: sgATF4, 100 nM	89.1
sgRNA knockout: sgATF4, 1000 nM	87.34
sgRNA knockout: sgATF4, 10000 nM	33.1
sgRNA knockout: sgATF6, 10 nM	118
sgRNA knockout: sgATF6, 100 nM	96.3
sgRNA knockout: sgATF6, 1000 nM	84.6
sgRNA knockout: sgATF6, 10000 nM	29.1
sgRNA knockout: sgATG7, 10 nM	132
sgRNA knockout: sgATG7, 100 nM	87.8
sgRNA knockout: sgATG7, 1000 nM	91.56
sgRNA knockout: sgATG7, 10000 nM	47.9
sgRNA knockout: sgERN1, 10 nM	110
sgRNA knockout: sgERN1, 100 nM	84.1
sgRNA knockout: sgERN1, 1000 nM	103
sgRNA knockout: sgERN1, 10000 nM	38.1
sgRNA knockout: sgHSF1, 10 nM	107.1
sgRNA knockout: sgHSF1, 100 nM	75.6
sgRNA knockout: sgHSF1, 1000 nM	87.9
sgRNA knockout: sgHSF1, 10000 nM	36.6
sgRNA knockout: sgHSF2, 10 nM	120
sgRNA knockout: sgHSF2, 100 nM	92.6
sgRNA knockout: sgHSF2, 1000 nM	77.1
sgRNA knockout: sgHSF2, 10000 nM	33.7
sgRNA knockout: sgKEAP1, 10 nM	109
sgRNA knockout: sgKEAP1, 100 nM	83.5
sgRNA knockout: sgKEAP1, 1000 nM	85.7
sgRNA knockout: sgKEAP1, 10000 nM	35.9
sgRNA knockout: sgNFE2L2, 10 nM	110
sgRNA knockout: sgNFE2L2, 100 nM	87.3
sgRNA knockout: sgNFE2L2, 1000 nM	89.9
sgRNA knockout: sgNFE2L2, 10000 nM	35.9
sgRNA knockout: sgSLC35F2, 10 nM	99.5
sgRNA knockout: sgSLC35F2, 100 nM	89.5
sgRNA knockout: sgSLC35F2, 1000 nM	83.4
sgRNA knockout: sgSLC35F2, 10000 nM	35
sgRNA knockout: sgXBP1, 10 nM	107
sgRNA knockout: sgXBP1, 100 nM	88.8
sgRNA knockout: sgXBP1, 1000 nM	91.96
sgRNA knockout: sgXBP1, 10000 nM	40.6

— the supplement of paper PMC7661543
